Data on three compounds can be found in PubChem BioAssay AID186 (DTP/NCI, 2004).

The assay concerns B6D2F1 mice, nontumored toxicity test, survival. Briefly: NCI In Vivo Anticancer Drug Screen. Data for tumor model Nontumored Animals (Toxicity Test) in B6D2F1 (BDF1) mice.

The structures appear in SMILES notation. Shown are survivors of the treated group in tumour-free mice. Counts of survivors are from the toxicity check (mostly the fifth day) where no day follows; animals may have died later. Schedules are NCI's codes, read here as Q, the interval in days (D) or hours (H), X, the number of doses. Some doses were run more than once; their values stand side by side, smallest first.

Take `Cc1c(N)nc([C@H](CC(N)=O)NC[C@H](N)C(N)=O)nc1C(=O)N[C@H](C(=O)N[C@H](C)[C@@H](O)[C@H](C)C(=O)N[C@H](C(=O)NCCc1nc(-c2nc(C(=O)NCCC[S+](C)C)cs2)cs1)[C@@H](C)O)C(OC1OC(CO)C(O)C(O)C1OC1OC(CO)C(O)C(OC(N)=O)C1O)c1cnc[nH]1` (stereo not given in full): the survivor count runs as follows: (dose: 0.03 mg/kg/injection, schedule: Q03HX040 (ip), vehicle: saline) 10 of 10; (dose: 0.06 mg/kg/injection, schedule: Q03HX040 (ip), vehicle: saline) 10 of 10; (dose: 0.12 mg/kg/injection, schedule: Q03HX040 (ip), vehicle: saline) 9 of 10; (dose: 0.25 mg/kg/injection, schedule: Q03HX040 (ip), vehicle: saline) 9 of 10; (dose: 0.5 mg/kg/injection, schedule: Q03HX040 (ip), vehicle: saline) 9 of 10; (dose: 1.0 mg/kg/injection, schedule: Q01DX009 (ip), vehicle: clinical formulation) 4 of 4. For the same compound, the survivor count was 8 of 10 (dose: 1.0 mg/kg/injection, schedule: Q03HX040 (ip), vehicle: saline); 4 of 4 (dose: 2.0 mg/kg/injection, schedule: Q01DX009 (ip), vehicle: clinical formulation); 4 of 4 (dose: 2.0 mg/kg/injection, schedule: Q01DX009 (ip), vehicle: water); 8 of 8 (dose: 2.0 mg/kg/injection, schedule: Q03HX008 (ip), vehicle: saline); 8 of 8 (dose: 2.0 mg/kg/injection, schedule: Q03HX016 (ip), vehicle: saline); 8 of 8 (dose: 2.0 mg/kg/injection, schedule: Q03HX024 (ip), vehicle: saline). Also, the survivor count is, setting by setting: (dose: 2.0 mg/kg/injection, schedule: Q03HX040 (ip), vehicle: saline) 9 of 10; (dose: 4.0 mg/kg/injection, schedule: Q01DX009 (ip), vehicle: clinical formulation) 4 of 4; (dose: 4.0 mg/kg/injection, schedule: Q01DX009 (ip), vehicle: water) 4 of 4; (dose: 4.0 mg/kg/injection, schedule: Q03HX008 (ip), vehicle: saline) 8 of 8; (dose: 4.0 mg/kg/injection, schedule: Q03HX016 (ip), vehicle: saline) 8 of 8; (dose: 4.0 mg/kg/injection, schedule: Q03HX024 (ip), vehicle: saline) 7 of 8 and 8 of 8. The survivor count is, setting by setting: (dose: 4.0 mg/kg/injection, schedule: Q03HX040 (ip), vehicle: saline) 5 of 10; (dose: 8.0 mg/kg/injection, schedule: Q01DX005 (ip), vehicle: saline) 6 of 6; (dose: 8.0 mg/kg/injection, schedule: Q01DX009 (ip), vehicle: clinical formulation) 4 of 4; (dose: 8.0 mg/kg/injection, schedule: Q01DX009 (ip), vehicle: saline) 8 of 8; (dose: 8.0 mg/kg/injection, schedule: Q01DX009 (ip), vehicle: water) 4 of 4; (dose: 8.0 mg/kg/injection, schedule: Q03HX008 (ip), vehicle: saline) 8 of 8. Besides, the survivor count is listed as 8 of 8 (dose: 8.0 mg/kg/injection, schedule: Q03HX016 (ip), vehicle: saline); 8 of 8 (dose: 8.0 mg/kg/injection, schedule: Q03HX024 (ip), vehicle: saline); 8 of 8 (dose: 16.0 mg/kg/injection, schedule: Q01DX001 (ip), vehicle: saline); 6 of 6 (dose: 16.0 mg/kg/injection, schedule: Q01DX005 (ip), vehicle: saline); 4 of 4 (dose: 16.0 mg/kg/injection, schedule: Q01DX009 (ip), vehicle: clinical formulation); 8 of 8 (dose: 16.0 mg/kg/injection, schedule: Q01DX009 (ip), vehicle: saline). The survivor count is 4 of 4 (dose: 16.0 mg/kg/injection, schedule: Q01DX009 (ip), vehicle: water); 6 of 8 and 8 of 8 (dose: 16.0 mg/kg/injection, schedule: Q03HX008 (ip), vehicle: saline); 7 of 8 and 8 of 8 (dose: 16.0 mg/kg/injection, schedule: Q03HX016 (ip), vehicle: saline); 7 of 8 and 8 of 8 (dose: 16.0 mg/kg/injection, schedule: Q03HX024 (ip), vehicle: saline); 8 of 8 (dose: 32.0 mg/kg/injection, schedule: Q01DX001 (ip), vehicle: saline); 6 of 6 (dose: 32.0 mg/kg/injection, schedule: Q01DX005 (ip), vehicle: saline). The survivor count is, setting by setting: (dose: 32.0 mg/kg/injection, schedule: Q01DX009 (ip), vehicle: saline) 7 of 8 and 8 of 8; (dose: 32.0 mg/kg/injection, schedule: Q01DX009 (ip), vehicle: water) 4 of 4; (dose: 32.0 mg/kg/injection, schedule: Q04DX003 (ip), vehicle: saline) 8 of 8; (dose: 32.0 mg/kg/injection, schedule: Q08DX002 (ip), vehicle: saline) 8 of 8; (dose: 64.0 mg/kg/injection, schedule: Q01DX001 (ip), vehicle: saline) 8 of 8; (dose: 64.0 mg/kg/injection, schedule: Q01DX005 (ip), vehicle: saline) 6 of 6. Besides, the survivor count by setting is: (dose: 64.0 mg/kg/injection, schedule: Q01DX009 (ip), vehicle: saline) 8 of 8; (dose: 64.0 mg/kg/injection, schedule: Q04DX003 (ip), vehicle: saline) 8 of 8; (dose: 64.0 mg/kg/injection, schedule: Q08DX002 (ip), vehicle: saline) 8 of 8; (dose: 128.0 mg/kg/injection, schedule: Q01DX001 (ip), vehicle: saline) 7 of 8 and 8 of 8; (dose: 128.0 mg/kg/injection, schedule: Q04DX003 (ip), vehicle: saline) 8 of 8; (dose: 128.0 mg/kg/injection, schedule: Q08DX002 (ip), vehicle: saline) 8 of 8.

For the compound `NCCCCNC(=O)c1csc(-c2csc(CCNC(=O)c3ccccc3)n2)n1`, the survivor count (dose: 6.25 mg/kg/injection, schedule: Q01DX011 (ip), vehicle: saline) is on record as 6 of 6; the survivor count (dose: 12.5 mg/kg/injection, schedule: Q01DX011 (ip), vehicle: saline) is reported as 6 of 6; the survivor count (dose: 25.0 mg/kg/injection, schedule: Q01DX011 (ip), vehicle: saline) is on record as 6 of 6; the survivor count (dose: 50.0 mg/kg/injection, schedule: Q01DX011 (ip), vehicle: saline) is recorded as 6 of 6; the survivor count (dose: 100.0 mg/kg/injection, schedule: Q01DX011 (ip), vehicle: saline) is 6 of 6; the survivor count (dose: 200.0 mg/kg/injection, schedule: Q01DX011 (ip), vehicle: saline) is given as 6 of 6. Moreover, the survivor count (dose: 400.0 mg/kg/injection, schedule: Q01DX011 (ip), vehicle: saline) is given as 1 of 6.

As for `Nc1ncnc2c1ncn2C1CC(O)C(CO)O1` (stereo not given), the survivor count is, setting by setting: (dose: 150.0 mg/kg/injection, schedule: Q03HX024 (ip), vehicle: saline with Tween-80) 5 of 5; (dose: 220.0 mg/kg/injection, schedule: Q03HX024 (ip), vehicle: saline with Tween-80) 5 of 5; (dose: 330.0 mg/kg/injection, schedule: Q03HX024 (ip), vehicle: saline with Tween-80) 5 of 5; (dose: 440.0 mg/kg/injection, schedule: Q03HX024 (ip), vehicle: saline with Tween-80) 5 of 5; (dose: 660.0 mg/kg/injection, schedule: Q03HX024 (ip), vehicle: saline with Tween-80) 5 of 5.
